doi:10.1101/2020.08.28.269175
These are yes or no findings as the source states them, for the method shown. In cells and extracts the contact can be indirect. Here binding means that the protein was enriched with, or labelled near, the bait; the list need not be complete.

Chains of the proteins cited; added tags and fusions are not shown. Lines headed by an entry give the natural chain unless they say otherwise; changes in a name come on top.
UniProt P0DTD2, whole entry, stated change not applied: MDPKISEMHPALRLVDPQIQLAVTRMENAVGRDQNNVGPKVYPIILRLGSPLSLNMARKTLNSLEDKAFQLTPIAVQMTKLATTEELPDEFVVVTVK

Target: SARS-CoV-2 ORF9B (SARS-CoV-2), P0DTD2
Test: proximity labelling
Settings: remark: other sources report otherwise

B1: mitochondrial antiviral signaling protein (MAVS), Q7Z434 1-540 (protein)
chain: MPFAEDKTYKYICRNFSNFCNVDVVEILPYLPCLTARDQDRLRATCTLSGNRDTLWHLFNTLQRRPGWVEYFIAALRGCELVDLADEVASVYQSYQPRTSDRPPDPLEPPSLPAERPGPPTPAAAHSIPYNSCREKEPSYPMPVQETQAPESPGENSEQALQTLSPRAIPRNPDGGPLESSSDLAALSPLTSSGHQEQDTELGSTHTAGATSSLTPSRGPVSPSVSFQPLARSTPRASRLPGPTGSVVSTGTSFSSSSPGLASAGAAEGKQGAESDQAEPIICSSGAEAPANSLPSKVPTTLMPVNTVALKVPANPASVSTVPSKLPTSSKPPGAVPSNALTNPAPSKLPINSTRAGMVPSKVPTSMVLTKVSASTVPTDGSSRNEETPAAPTPAGATGGSSAWLDSSSENRGLGSELSKPGVLASQVDSPFSGCFEDLAISASTSLGMGPCHGPEENEYKSEGTFGIHVAENPSIQLLEGNPGPPADPDGGPRPQADRKFQEREVPCHRPSPGALWLQVAVTGVLVVTLLVVLYRRRLH
For B1, the binding was “binds”.
